The values below come from article PMC4377584, “Sestrin2 inhibits mTORC1 through modulation of GATOR complexes” (Scientific Reports, 2015).

Sequences of proteins named here, by UniProt entry; tags and fusion partners are left off.
UniProt O75140: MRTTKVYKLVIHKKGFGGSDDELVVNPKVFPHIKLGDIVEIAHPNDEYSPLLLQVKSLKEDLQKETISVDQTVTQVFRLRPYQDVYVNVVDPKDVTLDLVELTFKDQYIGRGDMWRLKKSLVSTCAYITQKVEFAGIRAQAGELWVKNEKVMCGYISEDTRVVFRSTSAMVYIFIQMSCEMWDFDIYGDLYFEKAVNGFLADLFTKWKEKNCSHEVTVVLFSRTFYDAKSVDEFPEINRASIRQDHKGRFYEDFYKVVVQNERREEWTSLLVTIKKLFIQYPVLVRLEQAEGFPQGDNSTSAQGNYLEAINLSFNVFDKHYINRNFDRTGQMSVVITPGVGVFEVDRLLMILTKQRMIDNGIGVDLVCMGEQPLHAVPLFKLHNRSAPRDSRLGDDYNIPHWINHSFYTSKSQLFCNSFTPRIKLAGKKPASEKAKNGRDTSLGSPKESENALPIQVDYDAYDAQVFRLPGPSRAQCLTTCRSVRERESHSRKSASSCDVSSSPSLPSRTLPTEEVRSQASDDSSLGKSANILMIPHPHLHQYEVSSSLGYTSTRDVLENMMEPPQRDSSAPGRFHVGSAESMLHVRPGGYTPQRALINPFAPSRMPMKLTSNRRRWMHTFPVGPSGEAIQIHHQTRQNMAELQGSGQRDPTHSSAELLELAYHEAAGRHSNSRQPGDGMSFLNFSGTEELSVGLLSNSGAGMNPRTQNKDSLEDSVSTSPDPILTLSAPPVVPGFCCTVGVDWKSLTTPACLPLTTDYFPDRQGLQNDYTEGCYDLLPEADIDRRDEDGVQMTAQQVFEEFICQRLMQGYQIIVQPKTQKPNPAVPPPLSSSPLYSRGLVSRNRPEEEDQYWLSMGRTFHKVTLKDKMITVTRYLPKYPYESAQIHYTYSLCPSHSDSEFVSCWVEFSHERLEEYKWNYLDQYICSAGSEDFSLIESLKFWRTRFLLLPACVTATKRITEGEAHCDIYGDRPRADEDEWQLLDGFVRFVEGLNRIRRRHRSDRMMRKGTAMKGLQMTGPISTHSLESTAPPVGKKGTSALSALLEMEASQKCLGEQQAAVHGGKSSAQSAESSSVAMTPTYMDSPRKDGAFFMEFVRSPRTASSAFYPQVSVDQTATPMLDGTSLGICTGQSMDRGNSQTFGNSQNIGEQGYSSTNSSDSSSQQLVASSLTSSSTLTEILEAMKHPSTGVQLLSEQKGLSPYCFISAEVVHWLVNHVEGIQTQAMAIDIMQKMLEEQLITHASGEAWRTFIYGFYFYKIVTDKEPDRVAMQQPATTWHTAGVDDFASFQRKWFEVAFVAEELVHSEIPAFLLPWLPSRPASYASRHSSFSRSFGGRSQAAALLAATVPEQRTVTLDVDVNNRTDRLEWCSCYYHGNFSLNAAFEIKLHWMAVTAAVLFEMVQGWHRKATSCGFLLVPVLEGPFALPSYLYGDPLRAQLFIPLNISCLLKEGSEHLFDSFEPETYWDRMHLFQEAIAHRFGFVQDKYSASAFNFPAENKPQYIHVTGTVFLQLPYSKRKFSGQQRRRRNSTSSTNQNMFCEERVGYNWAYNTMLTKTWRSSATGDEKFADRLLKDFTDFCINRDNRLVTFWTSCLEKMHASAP

Where two headings read alike, the source gives them in different places. Results are given in words; binding and its absence hold for the method and conditions named. In cells and extracts the contact can be indirect. These calls come from enrichment with a bait or labelling near it, and not all partners need be listed. For some assays here: A no says only that the protein was not detected with the bait. Sequences can lack the tags named with a protein.

What all share (test): affinity purification with mass spectrometry; tandem affinity purification (Flag antibody resin, 3X-Flag peptide elution; streptavidin resin, biotin elution) of Flag-SBP-Sestrin2 from stably infected MCF10A cells lysed with 0.3% CHAPS; LC/ESI MS/MS; proteins also found with vector control taken as false-positive
Assay [1] concerns the target T1, Flag-SBP-Sestrin2 (UniProt P58004).
T1 sequence: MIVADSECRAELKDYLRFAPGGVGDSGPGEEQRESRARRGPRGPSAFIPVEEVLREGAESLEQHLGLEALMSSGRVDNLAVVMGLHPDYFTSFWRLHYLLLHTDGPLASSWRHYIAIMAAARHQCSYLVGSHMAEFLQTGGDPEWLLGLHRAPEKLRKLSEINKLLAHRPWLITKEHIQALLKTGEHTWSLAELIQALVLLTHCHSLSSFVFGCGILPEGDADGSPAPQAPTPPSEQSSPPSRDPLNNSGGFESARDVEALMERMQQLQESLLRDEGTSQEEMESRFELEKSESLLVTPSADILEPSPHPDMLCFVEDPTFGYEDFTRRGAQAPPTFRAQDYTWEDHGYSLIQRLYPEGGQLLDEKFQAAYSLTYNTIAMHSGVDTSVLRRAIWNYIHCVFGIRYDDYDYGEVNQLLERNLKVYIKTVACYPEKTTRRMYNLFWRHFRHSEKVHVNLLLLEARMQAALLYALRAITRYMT

The target in assay [2] is T2, Flag-SBP-Sestrin2, P58004.
T2 chain: T1 sequence
The following applies: remark: other sources report otherwise.

In assay [3] the target is T1, Flag-SBP-Sestrin2. The source holds these as a separate data set.

As to “DEPDC5 (endogenous, MCF10A) (from UniProt O75140 1-1603)”, in the assay with Flag-SBP-Sestrin2 [1], the binding entry is given as “no binding”.

B1: NPRL3 (endogenous, MCF10A), Q12980 1-569 (protein)
chain: MRDNTSPISVILVSSGSRGNKLLFRYPFQRSQEHPASQTSKPRSRYAASNTGDHADEQDGDSRFSDVILATILATKSEMCGQKFELKIDNVRFVGHPTLLQHALGQISKTDPSPKREAPTMILFNVVFALRANADPSVINCLHNLSRRIATVLQHEERRCQYLTREAKLILALQDEVSAMADGNEGPQSPFHHILPKCKLARDLKEAYDSLCTSGVVRLHINSWLEVSFCLPHKIHYAASSLIPPEAIERSLKAIRPYHALLLLSDEKSLLGELPIDCSPALVRVIKTTSAVKNLQQLAQDADLALLQVFQLAAHLVYWGKAIIIYPLCENNVYMLSPNASVCLYSPLAEQFSHQFPSHDLPSVLAKFSLPVSLSEFRNPLAPAVQETQLIQMVVWMLQRRLLIQLHTYVCLMASPSEEEPRPREDDVPFTARVGGRSLSTPNALSFGSPTSSDDMTLTSPSMDNSSAELLPSGDSPLNQRMTENLLASLSEHERAAILSVPAAQNPEDLRMFARLLHYFRGRHHLEEIMYNENTRRSQLLMLFDKFRSVLVVTTHEDPVIAVFQALLP
In the case of B1, in assay [2], the binding result is given as “no binding”.

B2: PPM1A (endogenous, MCF10A) (protein, UniProt P35813 1-382)
chain: MGAFLDKPKMEKHNAQGQGNGLRYGLSSMQGWRVEMEDAHTAVIGLPSGLESWSFFAVYDGHAGSQVAKYCCEHLLDHITNNQDFKGSAGAPSVENVKNGIRTGFLEIDEHMRVMSEKKHGADRSGSTAVGVLISPQHTYFINCGDSRGLLCRNRKVHFFTQDHKPSNPLEKERIQNAGGSVMIQRVNGSLAVSRALGDFDYKCVHGKGPTEQLVSPEPEVHDIERSEEDDQFIILACDGIWDVMGNEELCDFVRSRLEVTDDLEKVCNEVVDTCLYKGSRDNMSVILICFPNAPKVSPEAVKKEAELDKYLECRVEEIIKKQGEGVPDLVHVMRTLASENIPSLPPGGELASKRNVIEAVYNRLNPYKNDDTDSTSTDDMW
On to B2, for which the binding entry in the assay with Flag-SBP-Sestrin2 [3] was “binds”.

B3: NPRL2 (endogenous, MCF10A), Q8WTW4 1-380 (protein)
chain: MGSGCRIECIFFSEFHPTLGPKITYQVPEDFISRELFDTVQVYIITKPELQNKLITVTAMEKKLIGCPVCIEHKKYSRNALLFNLGFVCDAQAKTCALEPIVKKLAGYLTTLELESSFVSMEESKQKLVPIMTILLEELNASGRCTLPIDESNTIHLKVIEQRPDPPVAQEYDVPVFTKDKEDFFNSQWDLTTQQILPYIDGFRHIQKISAEADVELNLVRIAIQNLLYYGVVTLVSILQYSNVYCPTPKVQDLVDDKSLQEACLSYVTKQGHKRASLRDVFQLYCSLSPGTTVRDLIGRHPQQLQHVDERKLIQFGLMKNLIRRLQKYPVRVTREEQSHPARLYTGCHSYDEICCKTGMSYHELDERLENDPNIIICWK
Take B3: the binding entry in assay [2] is on record as “no binding”.

B4: WDR59 (endogenous, MCF10A) (protein, UniProt Q6PJI9 1-974)
chain: MAARWSSENVVVEFRDSQATAMSVDCLGQHAVLSGRRFLYIVNLDAPFEGHRKISRQSKWDIGAVQWNPHDSFAHYFAASSNQRVDLYKWKDGSGEVGTTLQGHTRVISDLDWAVFEPDLLVTSSVDTYIYIWDIKDTRKPTVALSAVAGASQVKWNKKNANCLATSHDGDVRIWDKRKPSTAVEYLAAHLSKIHGLDWHPDSEHILATSSQDNSVKFWDYRQPRKYLNILPCQVPVWKARYTPFSNGLVTVMVPQLRRENSLLLWNVFDLNTPVHTFVGHDDVVLEFQWRKQKEGSKDYQLVTWSRDQTLRMWRVDSQMQRLCANDILDGVDEFIESISLLPEPEKTLHTEDTDHQHTASHGEEEALKEDPPRNLLEERKSDQLGLPQTLQQEFSLINVQIRNVNVEMDAADRSCTVSVHCSNHRVKMLVKFPAQYPNNAAPSFQFINPTTITSTMKAKLLKILKDTALQKVKRGQSCLEPCLRQLVSCLESFVNQEDSASSNPFALPNSVTPPLPTFARVTTAYGSYQDANIPFPRTSGARFCGAGYLVYFTRPMTMHRAVSPTEPTPRSLSALSAYHTGLIAPMKIRTEAPGNLRLYSGSPTRSEKEQVSISSFYYKERKSRRWKSKREGSDSGNRQIKAAGKVIIQDIACLLPVHKSLGELYILNVNDIQETCQKNAASALLVGRKDLVQVWSLATVATDLCLGPKSDPDLETPWARHPFGRQLLESLLAHYCRLRDVQTLAMLCSVFEAQSRPQGLPNPFGPFPNRSSNLVVSHSRYPSFTSSGSCSSMSDPGLNTGGWNIAGREAEHLSSPWGESSPEELRFGSLTYSDPRERERDQHDKNKRLLDPANTQQFDDFKKCYGEILYRWGLREKRAEVLKFVSCPPDPHKGIEFGVYCSHCRSEVRGTQCAICKGFTFQCAICHVAVRGSSNFCLTCGHGGHTSHMMEWFRTQEVCPTGCGCHCLLESTF
Turning to B4, the binding entry in the assay with Flag-SBP-Sestrin2 [3] was “binds”.
